No constants are given. Whether binding was seen depends on the method and setting. For some assays here: In cells and extracts the contact can be indirect.
Experiments:
SLC7A5-pGBKT7 (human) = SLC7A5-pGBKT7 (human) (UniProt Q01650); assay: two-hybrid; SLC7A5-pGBKT7 and ZNF24-pGADT7 cotransformed into yeast AH109; spots on SD-TL, SD-TLH, SD-TLHA, SD-TLHA + x-α-Gal
SLC7A5-myc (human) = SLC7A5-myc (human) (UniProt Q01650); assay: pull-down; SLC7A5-myc and ZNF24-3×Flag cotransfected into HEK293T; lysate on anti-Myc or anti-Flag magnetic beads overnight at 4 °C; elution with c-Myc or 3×Flag peptide

Amino acid sequences for entries named in this document (tags omitted).
UniProt Q01650: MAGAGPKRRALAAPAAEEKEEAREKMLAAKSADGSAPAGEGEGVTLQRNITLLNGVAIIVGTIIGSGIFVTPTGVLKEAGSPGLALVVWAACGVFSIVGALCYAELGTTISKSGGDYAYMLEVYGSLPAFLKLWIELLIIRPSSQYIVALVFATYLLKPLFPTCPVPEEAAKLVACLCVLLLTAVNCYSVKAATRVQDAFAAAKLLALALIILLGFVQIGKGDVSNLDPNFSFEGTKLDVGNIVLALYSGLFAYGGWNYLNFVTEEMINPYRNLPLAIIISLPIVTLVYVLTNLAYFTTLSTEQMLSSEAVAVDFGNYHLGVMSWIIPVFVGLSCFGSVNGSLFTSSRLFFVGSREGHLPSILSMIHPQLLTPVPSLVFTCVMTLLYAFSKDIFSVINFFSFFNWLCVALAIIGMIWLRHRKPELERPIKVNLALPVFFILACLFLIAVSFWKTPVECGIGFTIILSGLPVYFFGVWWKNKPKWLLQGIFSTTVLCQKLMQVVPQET
UniProt P17028: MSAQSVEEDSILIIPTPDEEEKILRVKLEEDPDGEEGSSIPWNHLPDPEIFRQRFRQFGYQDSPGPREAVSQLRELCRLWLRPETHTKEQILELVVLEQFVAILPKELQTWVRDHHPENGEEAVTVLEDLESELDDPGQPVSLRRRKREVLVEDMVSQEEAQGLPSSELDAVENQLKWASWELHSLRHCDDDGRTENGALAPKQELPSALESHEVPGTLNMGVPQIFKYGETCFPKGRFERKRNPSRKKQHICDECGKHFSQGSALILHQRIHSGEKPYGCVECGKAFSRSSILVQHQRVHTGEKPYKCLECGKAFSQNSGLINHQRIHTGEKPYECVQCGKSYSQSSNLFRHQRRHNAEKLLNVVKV

Substance: ZNF24-pGADT7 (from UniProt P17028 1-368)
- binding (SLC7A5-pGBKT7 (human)): no binding

Substance: ZNF24-3×Flag (from UniProt P17028 1-368)
- binding (SLC7A5-myc (human)): no binding

Source: paper PMC9727282
